Results taken from article PMC9520760 (ACS Omega, 2022).

Columns and labels:
MDA-MB-231 cells = assay: MTT cell proliferation assay, MDA-MB-231; type: cell-based; details: Homo sapiens, MDA-MB-231, 48 h, read-out: IC50 (Mean ± SEM) MDA-MB-231
MCF-7 cells = assay: MTT cell proliferation assay, MCF-7; type: cell-based; details: Homo sapiens, MCF7, 48 h, read-out: IC50 (Mean ± SEM) MCF-7

CC/C(=C(\c1ccccc1)c1ccc(OCCN(C)C)cc1)c1ccccc1 [TAM, Tamoxifen, reference compound]
IC50 (MDA-MB-231 cells): 16.2 ± 0.47 µM
IC50 (MCF-7 cells): 12.8 ± 0.38 µM
